For the test, the target named is focal adhesion kinase (mouse (endogenous in NIH3T3)) (UniProt P34152). The test can be described thus: co-IP; NIH3T3 cell extracts (500 µg, TX-100 lysis buffer) immunoprecipitated with anti-FAK Ab, WB with anti-HA Ab; cells without serum 16 h, then 10% serum (in suspension), FN, or FN plus serum for 20 or 60 min.

Protein sequences, listed by entry. Tags and fused reporters are not part of them.
UniProt P34152: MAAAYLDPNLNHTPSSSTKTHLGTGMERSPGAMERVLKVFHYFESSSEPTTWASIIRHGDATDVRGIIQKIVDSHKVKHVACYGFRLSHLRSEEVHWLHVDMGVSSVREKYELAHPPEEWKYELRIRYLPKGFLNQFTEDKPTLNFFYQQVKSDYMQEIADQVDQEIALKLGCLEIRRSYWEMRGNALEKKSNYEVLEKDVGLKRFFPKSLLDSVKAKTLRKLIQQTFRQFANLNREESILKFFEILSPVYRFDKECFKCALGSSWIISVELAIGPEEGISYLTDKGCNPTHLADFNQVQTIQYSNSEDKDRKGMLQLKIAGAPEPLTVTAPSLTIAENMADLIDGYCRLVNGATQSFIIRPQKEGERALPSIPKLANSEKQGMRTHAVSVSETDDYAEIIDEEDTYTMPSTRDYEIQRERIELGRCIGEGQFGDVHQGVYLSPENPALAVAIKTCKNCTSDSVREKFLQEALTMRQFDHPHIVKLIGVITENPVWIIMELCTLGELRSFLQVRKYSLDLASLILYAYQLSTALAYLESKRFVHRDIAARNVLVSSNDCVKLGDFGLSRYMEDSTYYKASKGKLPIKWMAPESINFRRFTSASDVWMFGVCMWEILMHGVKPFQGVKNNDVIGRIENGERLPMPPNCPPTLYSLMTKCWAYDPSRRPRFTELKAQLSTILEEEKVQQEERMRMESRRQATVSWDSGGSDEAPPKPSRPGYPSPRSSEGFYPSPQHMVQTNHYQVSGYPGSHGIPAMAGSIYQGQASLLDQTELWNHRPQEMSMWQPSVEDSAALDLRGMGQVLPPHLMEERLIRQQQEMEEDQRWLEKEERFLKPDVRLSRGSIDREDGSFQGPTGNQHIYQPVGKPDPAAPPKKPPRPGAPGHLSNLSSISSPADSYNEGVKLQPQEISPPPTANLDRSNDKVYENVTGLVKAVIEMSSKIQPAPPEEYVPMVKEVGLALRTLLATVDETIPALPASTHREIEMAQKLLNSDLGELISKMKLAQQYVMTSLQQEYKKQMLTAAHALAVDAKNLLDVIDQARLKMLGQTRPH
UniProt P26450: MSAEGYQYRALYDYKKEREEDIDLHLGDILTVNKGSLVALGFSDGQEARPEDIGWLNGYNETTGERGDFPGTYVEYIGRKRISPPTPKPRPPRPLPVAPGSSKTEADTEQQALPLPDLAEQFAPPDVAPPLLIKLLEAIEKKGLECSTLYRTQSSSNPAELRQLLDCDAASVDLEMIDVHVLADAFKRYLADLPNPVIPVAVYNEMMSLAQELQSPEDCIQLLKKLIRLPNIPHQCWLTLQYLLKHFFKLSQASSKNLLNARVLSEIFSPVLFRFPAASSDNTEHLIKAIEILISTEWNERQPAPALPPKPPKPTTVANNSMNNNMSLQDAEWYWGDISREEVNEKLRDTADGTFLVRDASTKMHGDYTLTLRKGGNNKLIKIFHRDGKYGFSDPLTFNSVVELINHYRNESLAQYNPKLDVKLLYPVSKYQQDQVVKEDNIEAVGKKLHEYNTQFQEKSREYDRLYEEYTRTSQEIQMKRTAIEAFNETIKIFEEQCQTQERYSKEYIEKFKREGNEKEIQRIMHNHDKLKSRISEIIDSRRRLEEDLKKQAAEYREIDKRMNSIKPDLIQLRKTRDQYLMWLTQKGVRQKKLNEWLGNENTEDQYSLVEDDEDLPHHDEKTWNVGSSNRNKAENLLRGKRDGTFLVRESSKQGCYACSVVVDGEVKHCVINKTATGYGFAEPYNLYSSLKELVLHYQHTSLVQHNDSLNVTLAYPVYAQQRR

Here are results for 1 substance from paper PMC4197441.

Results are given in words; binding and its absence hold for the method and conditions named. In cells and extracts the contact can be indirect. Some binding calls cover weakened binding; strength is not graded here.

Turning to “recombinant HA-tagged p85α (regulatory subunit of phosphoinositide 3-kinase) (from UniProt P26450 1-724)”, the binding entry was “binds”.
